Reference: PubChem BioAssay AID1224828 (NIAID, 2016)

Test: 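Regulators linking TLR4 signalling to p65 nuclear translocation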 (primary screen)
System: mouse RAW264.7 G9 macrophage reporter cells (GFP-p65, Tnf promoter-mCherry)
Reagents: siRNA pool against mouse genes, 100 nM
Timing: 2 days siRNA transfection, then 40 min LPS before fixation
Conditions: LPS (Salmonella minnesota R595) at 10 ng/ml
Read-out: 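Imaged p65 nuclear translocation ratio, normalised to the plate median, converted to robust z-scores and averaged across two replicates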
Scale: p65 translocation robust z-score: higher = more nuclear NF-kappaB p65 after LPS than the plate median; nuclear/cytoplasmic p65 ratio: higher = more nuclear NF-kappaB p65
Active means: 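Active if robust z is above 3.3 (negative regulators) or below -1.56, the Tlr4 control median (positive regulators); activity score 50 or more; control wells not called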
Calls: active = hit (p65 shift raised or lowered); inactive = no clear change
In all, the deposit lists about 17,000 reagents; shown is an unselected part. 762 of them (4.5%) were called active. 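Active calls include both raised and lowered p65 entry, mostly lowered; wells with fewer than 50 cells lack a z-score.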 Raw values are not corrected between plates. Reagents against one gene are numbered here.

| gene | pool no. | p65 translocation robust z-score | nuclear/cytoplasmic p65 ratio, rep 1 | nuclear/cytoplasmic p65 ratio, rep 2 | low cell count flag | call |
| --- | --- | --- | --- | --- | --- | --- |
| Nasp | 1 | 0.82 | 1.91 | 1.72 | enough cells to score | inactive |
| Ctnnd2 | 1 | 0.13 | 1.43 | 1.44 | enough cells to score | inactive |
| A730027B03Rik (retired record) | 1 | -0.56 | 1.16 | 1.45 | enough cells to score | inactive |
| Ppp1r16b | 1 | 0.93 | 1.65 | 1.51 | enough cells to score | inactive |
| Fgf15 | 1 | -0.16 | 1.45 | 1.31 | enough cells to score | inactive |
| Cd274 | 1 | – | 1.23 | 1.12 | fewer than 50 cells per well; well left out of scoring | inactive |
| Fank1 | 1 | – | 1.32 | 1.59 | fewer than 50 cells per well; well left out of scoring | inactive |
| Thrsp | 1 | -1.6 | 1.29 | 1.29 | enough cells to score | active |
| Hoxb4 | 1 | -0.81 | 1.4 | 1.44 | enough cells to score | inactive |
| Nup58 | 1 | 0.29 | 1.82 | 1.52 | enough cells to score | inactive |
| Ubxn6 | 1 | 0.52 | 1.49 | 1.26 | enough cells to score | inactive |
| Snx3 | 1 | 1.64 | 1.61 | 1.44 | enough cells to score | inactive |
| Clstn3 | 1 | 0.46 | 1.55 | 1.42 | enough cells to score | inactive |
| Cyp2j13 | 1 | 0.63 | 1.68 | 1.87 | enough cells to score | inactive |
| Zpld1 | 1 | 1.27 | 1.52 | 1.8 | enough cells to score | inactive |
| Adipoq | 1 | 1.63 | 1.84 | 1.95 | enough cells to score | inactive |
| Rab29 | 1 | 1.36 | 1.75 | 1.66 | enough cells to score | inactive |
| Dctn5 | 1 | -0.47 | 1.55 | 1.43 | enough cells to score | inactive |
| Ecsit | 1 | 0.21 | 1.4 | 1.31 | enough cells to score | inactive |
| Cxcl12 | 1 | 0.04 | 1.51 | 1.51 | enough cells to score | inactive |
| Kcnab2 | 1 | 0.36 | 1.49 | 1.46 | enough cells to score | inactive |
| Fcna | 1 | -0.87 | 1.41 | 1.2 | enough cells to score | inactive |
| Pcdh8 | 1 | 1.24 | 1.62 | 1.57 | enough cells to score | inactive |
| Vwf | 1 | -0.39 | 1.48 | 1.43 | enough cells to score | inactive |
| Or4c106 | 1 | -0.19 | 1.74 | 1.46 | enough cells to score | inactive |
| Arc | 1 | -0.15 | 1.54 | 1.53 | enough cells to score | inactive |
| Oas2 | 1 | 0.15 | 1.53 | 1.38 | enough cells to score | inactive |
| Myd88 | 1 | -2.66 | 0.985 | 1.1 | enough cells to score | active |
| Homer1 | 1 | -0.3 | 1.51 | 1.58 | enough cells to score | inactive |
| Tmlhe | 1 | – | 1.32 | 1.17 | fewer than 50 cells per well; well left out of scoring | inactive |
| Mettl14 | 1 | -0.05 | 1.66 | 1.39 | enough cells to score | inactive |
| Pcdhb4 | 1 | 0.63 | 1.53 | 1.31 | enough cells to score | inactive |
| Ggt1 | 1 | 0.16 | 1.44 | 1.41 | enough cells to score | inactive |
| Lrrc4b | 1 | 0.03 | 1.72 | 1.55 | enough cells to score | inactive |
| Wwc2 | 1 | -0.28 | 1.48 | 1.56 | enough cells to score | inactive |
| Gpr183 | 1 | -0.53 | 1.45 | 1.49 | enough cells to score | inactive |
| Or14c39 | 1 | – | 1.11 | 1.38 | fewer than 50 cells per well; well left out of scoring | inactive |
| Usp9x | 1 | -0.32 | 1.49 | 1.44 | enough cells to score | inactive |
| Surf2 | 1 | – | 1.16 | 0.988 | fewer than 50 cells per well; well left out of scoring | inactive |
| Prpf6 | 1 | – | 1.1 | 1.08 | fewer than 50 cells per well; well left out of scoring | inactive |
| Tmem260 | 1 | 1.53 | 1.73 | 1.66 | enough cells to score | inactive |
| Calcr | 1 | 0.39 | 1.54 | 1.66 | enough cells to score | inactive |
| Pbx1 | 1 | -0.12 | 1.43 | 1.4 | enough cells to score | inactive |
| Gramd1c | 1 | – | 1.28 | 1.24 | fewer than 50 cells per well; well left out of scoring | inactive |
| Rpl10 | 1 | 1.33 | 1.6 | 1.26 | enough cells to score | inactive |
| Apip | 1 | 1.61 | 1.96 | 1.91 | enough cells to score | inactive |
| Enpp3 | 1 | -0.31 | 1.38 | 1.36 | enough cells to score | inactive |
| Ccdc28a | 1 | -0.89 | 1.2 | 1.38 | enough cells to score | inactive |
| Slc8a2 | 1 | – | 1.7 | 1.22 | fewer than 50 cells per well; well left out of scoring | inactive |
| Vmn1r190-ps | 1 | -0.8 | 1.29 | 1.13 | enough cells to score | inactive |
| Ss18l1 | 1 | -0.85 | 1.25 | 1.18 | enough cells to score | inactive |
| Arg1 | 1 | 0.65 | 1.79 | 1.64 | enough cells to score | inactive |
| Gdpd5 | 1 | 0.36 | 1.58 | 1.96 | enough cells to score | inactive |
| Dhx30 | 1 | – | 1.68 | 1.6 | fewer than 50 cells per well; well left out of scoring | inactive |
| Mug1 | 1 | -0.4 | 1.73 | 1.39 | enough cells to score | inactive |
| Spata6 | 1 | 1.04 | 1.56 | 1.35 | enough cells to score | inactive |
| Fga | 1 | -1.01 | 1.29 | 1.28 | enough cells to score | inactive |
| Tmc3 | 1 | 1.06 | 1.53 | 1.29 | enough cells to score | inactive |
| A630031M04Rik | 1 | 4.09 | 2.02 | 1.98 | enough cells to score | active |
| Klrg1 | 1 | 0.17 | 1.52 | 1.39 | enough cells to score | inactive |
| Polr2c | 1 | 2.66 | 1.7 | 1.53 | enough cells to score | inactive |
| Lce1d | 1 | 0.39 | 1.5 | 1.25 | enough cells to score | inactive |
| Tnp2 | 1 | – | 1.23 | 1.5 | fewer than 50 cells per well; well left out of scoring | inactive |
| Mzf1 | 1 | 0.74 | 1.68 | 1.55 | enough cells to score | inactive |
| Cfi | 1 | -1.24 | 1.16 | 1.35 | enough cells to score | inactive |
| Tgfb1i1 | 1 | -0.6 | 1.5 | 1.37 | enough cells to score | inactive |
| Srpx2 | 1 | 0.46 | 1.56 | 1.55 | enough cells to score | inactive |
| Oaz2 | 1 | 0.22 | 1.46 | 1.46 | enough cells to score | inactive |
| Icam5 | 1 | 0.91 | 1.57 | 1.48 | enough cells to score | inactive |
| Nupr1 | 1 | 0.54 | 1.88 | 1.53 | enough cells to score | inactive |
| Rheb | 1 | -0.08 | 1.46 | 1.55 | enough cells to score | inactive |
| Or8u9 | 1 | -1.46 | 1.45 | 1.35 | enough cells to score | inactive |
| Sgsm3 | 1 | – | 1.11 | 1.06 | fewer than 50 cells per well; well left out of scoring | inactive |
| Ikzf4 | 1 | -0.15 | 1.46 | 1.17 | enough cells to score | inactive |
| Ikzf4 | 2 | -0.22 | 1.41 | 1.44 | enough cells to score | inactive |

A stretch taken from the entries so far, for reference:
| gene | pool no. | p65 translocation robust z-score | nuclear/cytoplasmic p65 ratio, rep 1 | nuclear/cytoplasmic p65 ratio, rep 2 | low cell count flag | call |
| --- | --- | --- | --- | --- | --- | --- |
| Lrrc4b | 1 | 0.03 | 1.72 | 1.55 | enough cells to score | inactive |
| Wwc2 | 1 | -0.28 | 1.48 | 1.56 | enough cells to score | inactive |
| Gpr183 | 1 | -0.53 | 1.45 | 1.49 | enough cells to score | inactive |
| Or14c39 | 1 | – | 1.11 | 1.38 | fewer than 50 cells per well; well left out of scoring | inactive |
| Usp9x | 1 | -0.32 | 1.49 | 1.44 | enough cells to score | inactive |
| Surf2 | 1 | – | 1.16 | 0.988 | fewer than 50 cells per well; well left out of scoring | inactive |
| Prpf6 | 1 | – | 1.1 | 1.08 | fewer than 50 cells per well; well left out of scoring | inactive |
